# Measured values reported in PMC5996148.
# Where “and” joins values, the source holds several entries; their conditions need not be identical. Equal values may be shown once. Some of the results follow. For some assays here: Construct or isoform of the protein are uncertain.
# What was measured:
# Test in all cases: protein microarray (ProtoArray v5.0), streptavidin-Alexa Fluor 647
# Details in all cases: 3'-biotin; 20 mM Tris (pH 7.5), 5 mM MgCl2, 100 mM KCl, 0.1% Tween-20, A/T-rich and random oligonucleotide blockers; temperature not stated; high values mean tight binding
# PBEF1 (human) = test system: PBEF1 (human)
# PBK (human) = test system: PBK (human)
# PBLD (human) = test system: PBLD (human)
# PCDHB16 (human) = test system: PCDHB16 (human)
# PCDHGC4 (human) = test system: PCDHGC4 (human)
# PCDHGC5 (human) = test system: PCDHGC5 (human)
# PCK1 (human) = test system: PCK1 (human)
# PCNA (human) = test system: PCNA (human)
# PCTP (human) = test system: PCTP (human)
# PDCD5 = biological target: T1, PDCD5 (UniProt O14737)
# T1 sequence: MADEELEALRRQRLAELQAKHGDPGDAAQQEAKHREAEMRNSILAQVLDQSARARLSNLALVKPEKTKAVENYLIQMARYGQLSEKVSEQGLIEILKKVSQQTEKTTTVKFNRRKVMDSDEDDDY
# PDCL (human) = test system: PDCL (human)
# PDE8A (human) = test system: PDE8A (human)
# PDK4 (human) = test system: PDK4 (human)
# PDXDC1 (human) = test system: PDXDC1 (human)
# PDYN (human) = test system: PDYN (human)
# [1] = test system: PDZ and LIM domain protein 3 (human)
# PDZK1 (human) = test system: PDZK1 (human)
# [2] = test system: PDZK1-interacting protein 1 (human)
# PDZK1IP1 (human) = test system: PDZK1IP1 (human)
# PECAM1 (human) = test system: PECAM1 (human)
sequence,measurement,setting,value
GGTGACAGGGGTATGGGGAGGGG [G4-2 biotinylated (Ct1)],binding signal,PBEF1 (human),-0.374 z-score and -0.359 z-score
same,binding signal,PBK (human),-0.397 z-score
same,binding signal,PBLD (human),-0.387 z-score
same,binding signal,PCDHB16 (human),-0.381 z-score
same,binding signal,PCDHGC4 (human),-0.367 z-score
same,binding signal,PCDHGC5 (human),-0.371 z-score
same,binding signal,PCK1 (human),-0.399 z-score
same,binding signal,PCNA (human),-0.385 z-score
same,binding signal,PCTP (human),-0.399 z-score
same,binding signal,PDCD5,-0.377 z-score
same,binding signal,PDCL (human),-0.372 z-score
same,binding signal,PDE8A (human),-0.366 z-score
same,binding signal,PDK4 (human),-0.391 z-score
same,binding signal,PDXDC1 (human),-0.381 z-score
same,binding signal,PDYN (human),-0.373 z-score
same,binding signal,[1],-0.395 z-score
same,binding signal,PDZK1 (human),-0.383 z-score
same,binding signal,[2],-0.373 z-score
same,binding signal,PDZK1IP1 (human),-0.368 z-score
same,binding signal,PECAM1 (human),-0.36 z-score

# A section from the list above, for reference:
sequence,measurement,setting,value
GGTGACAGGGGTATGGGGAGGGG [G4-2 biotinylated (Ct1)],binding signal,PDCD5,-0.377 z-score
same,binding signal,PDCL (human),-0.372 z-score
